Drawing on publication PMC2077894, this text covers binding for three molecules.

Protein sequences, listed by entry. Tags and fused reporters are not part of them. Lines headed by an entry give the natural chain unless they say otherwise; changes in a name come on top.
UniProt Q9VS37: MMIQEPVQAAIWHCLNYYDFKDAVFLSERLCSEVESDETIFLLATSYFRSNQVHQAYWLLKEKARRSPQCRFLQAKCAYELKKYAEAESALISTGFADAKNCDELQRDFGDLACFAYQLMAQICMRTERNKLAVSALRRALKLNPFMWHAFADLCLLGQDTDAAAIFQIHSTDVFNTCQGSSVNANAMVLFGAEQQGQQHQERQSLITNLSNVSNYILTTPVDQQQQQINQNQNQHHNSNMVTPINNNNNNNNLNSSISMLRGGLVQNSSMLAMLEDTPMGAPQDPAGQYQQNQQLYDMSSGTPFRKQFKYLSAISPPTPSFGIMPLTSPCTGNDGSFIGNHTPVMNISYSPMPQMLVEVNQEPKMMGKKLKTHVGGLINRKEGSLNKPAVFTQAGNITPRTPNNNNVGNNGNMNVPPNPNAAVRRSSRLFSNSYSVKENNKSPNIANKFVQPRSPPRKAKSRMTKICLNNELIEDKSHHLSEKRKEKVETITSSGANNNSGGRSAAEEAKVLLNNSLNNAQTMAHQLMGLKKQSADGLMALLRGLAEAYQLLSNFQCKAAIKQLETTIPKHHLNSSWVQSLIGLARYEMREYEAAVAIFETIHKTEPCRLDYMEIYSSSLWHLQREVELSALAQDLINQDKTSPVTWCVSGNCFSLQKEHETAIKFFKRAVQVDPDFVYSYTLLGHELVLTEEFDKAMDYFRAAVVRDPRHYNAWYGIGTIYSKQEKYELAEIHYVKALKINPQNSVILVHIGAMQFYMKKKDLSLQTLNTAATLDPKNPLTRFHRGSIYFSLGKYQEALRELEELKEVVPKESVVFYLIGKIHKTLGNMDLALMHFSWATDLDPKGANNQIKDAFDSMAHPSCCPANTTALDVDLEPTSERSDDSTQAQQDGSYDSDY

These are yes or no findings as the source states them, for the method shown. Binding seen in cells or lysates may run through a third protein. For some of these results: A result given as binding can be weak or reduced; the word gives no strength. Tags and fused reporters may be left off the sequences shown.

The target of one assay is T1, PLU-MYC (Drosophila) (UniProt P42570).
T1 sequence: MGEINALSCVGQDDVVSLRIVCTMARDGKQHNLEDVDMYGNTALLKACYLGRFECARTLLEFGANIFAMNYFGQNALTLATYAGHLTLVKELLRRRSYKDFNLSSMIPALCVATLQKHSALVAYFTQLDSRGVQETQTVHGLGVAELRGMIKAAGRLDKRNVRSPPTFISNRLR
The assay can be described thus: co-IP; anti-MYC (9E10) on Protein A Sepharose, whole ovary extracts (homogenized in 25 mM HEPES pH 7.5, 0.4 M NaCl), 2-4 h at 4 °C; washes in IP buffer (100 mM NaCl, 0.1% Triton X-100), one of them with 0.5 M NaCl added; immunoblot.

In assay [1] the target is T2, MYC-CORT (6xMYC-tagged CORT, product of cortex) (Drosophila) (UniProt Q960N3).
T2 sequence: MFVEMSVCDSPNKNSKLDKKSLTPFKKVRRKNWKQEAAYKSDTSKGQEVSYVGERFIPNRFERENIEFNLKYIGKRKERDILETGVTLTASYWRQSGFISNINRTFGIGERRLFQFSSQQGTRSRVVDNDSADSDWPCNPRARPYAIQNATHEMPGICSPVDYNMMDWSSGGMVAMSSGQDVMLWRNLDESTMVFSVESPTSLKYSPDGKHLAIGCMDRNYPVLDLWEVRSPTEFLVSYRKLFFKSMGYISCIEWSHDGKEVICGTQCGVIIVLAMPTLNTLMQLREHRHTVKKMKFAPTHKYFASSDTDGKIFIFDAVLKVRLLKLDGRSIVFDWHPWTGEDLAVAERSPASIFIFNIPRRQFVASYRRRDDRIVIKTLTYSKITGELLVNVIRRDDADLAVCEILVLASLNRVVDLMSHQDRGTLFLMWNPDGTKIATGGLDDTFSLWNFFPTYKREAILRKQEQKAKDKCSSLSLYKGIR
Described as above.

Assay [2] concerns the target Cdc27 (Drosophila (endogenous in ovaries)) (UniProt Q9VS37). Put plainly: co-IP; reciprocal: affinity-purified rabbit anti-Cdc27 on Protein A Sepharose, whole ovary extracts from UAS-myc-cort/nos-gal4 females, 2-4 h at 4 °C; immunoblot with anti-MYC. For orientation: In western blotting, separated proteins are transferred to a membrane and probed.

As for Cdc27 (from UniProt Q9VS37), the binding entry with PLU-MYC (Drosophila) was “no binding”; in assay [1], “binds”.

“Morula (MR), the APC2 homolog in Drosophila”: the binding result in assay [1] is listed as “no binding”.

B1: MYC-CORT (6xMYC-tagged CORT, product of cortex) (protein, UniProt Q960N3 1-483)
chain: MFVEMSVCDSPNKNSKLDKKSLTPFKKVRRKNWKQEAAYKSDTSKGQEVSYVGERFIPNRFERENIEFNLKYIGKRKERDILETGVTLTASYWRQSGFISNINRTFGIGERRLFQFSSQQGTRSRVVDNDSADSDWPCNPRARPYAIQNATHEMPGICSPVDYNMMDWSSGGMVAMSSGQDVMLWRNLDESTMVFSVESPTSLKYSPDGKHLAIGCMDRNYPVLDLWEVRSPTEFLVSYRKLFFKSMGYISCIEWSHDGKEVICGTQCGVIIVLAMPTLNTLMQLREHRHTVKKMKFAPTHKYFASSDTDGKIFIFDAVLKVRLLKLDGRSIVFDWHPWTGEDLAVAERSPASIFIFNIPRRQFVASYRRRDDRIVIKTLTYSKITGELLVNVIRRDDADLAVCEILVLASLNRVVDLMSHQDRGTLFLMWNPDGTKIATGGLDDTFSLWNFFPTYKREAILRKQEQKAKDKCSSLSLYKGIR
For the molecule B1, the binding result in assay [2] is “binds”.
